Measurements taken from patent US20060222643A1 (Chugai, published 2006).
Results are given in words; binding and its absence hold for the method and conditions named. Some binding calls cover weakened binding; strength is not graded here. Sequences can lack the tags named with a protein. No end group written: not given here.

T1: MG10 (Gln213 to Ala231)-GST fusion protein (human)
T1 sequence: QPTMPWQDGPKQTSPSREA


Key:
[1] = target: T1, MG10 (Gln213 to Ala231)-GST fusion protein (human); test: affinity column of immobilized MG10-GST fusion protein, CHO culture supernatant loaded
[2] = target: T1, MG10 (Gln213 to Ala231)-GST fusion protein (human); test: SPR, Biacore 3000, MG10-GST immobilized
[3] = target: T1, MG10 (Gln213 to Ala231)-GST fusion protein (human); test: Western blotting of GST fusion protein

Binder	binding [1]	binding [2]	binding [3]
hVB22B p-z sc(Fv)2 (scFv) QVQLVQSGPEVKKPGASVKVSCKASGYTFTNSWMNWVRQRPGKGLEWMGRIYPGDGETIYNGKFRVRVTITADESTSTAYMELSSLRSEDTAVYYCARGYDDYSFAYWGQGTTVTVSSGGGGSGGGGSGGGGSDIVMTQSALSLPVTPGEPASISCRSSKSLLHSNGNTYLYWFQQKPGQSPQLLIYRMSNLASGVPDRFSGSGSGTAFTLKISRVEAEDVGVYYCMQHIEYPFTFGQGTKLEIKGGGGSGGGGSGGGGSQVQLVQSGPEVKKPGASVKVSCKASGYTFTNSWMNWVRQRPGKGLEWMGRIYPGDGETIYNGKFRVRVTITADESTSTAYMELSSLRSEDTAVYYCARGYDDYSFAYWGQGTTVTVSSGGGGSGGGGSGGGGSDIVMTQSALSLPVTPGEPASISCRSSKSLLHSNGNTYLYWFQQKPGQSPQLLIYRMSNLASGVPDRFSGSGSGTAFTLKISRVEAEDVGVYYCMQHIEYPFTFGQGTKLEIK	binds		
hVB22B g-e sc(Fv)2 (scFv) QVQLVQSGPEVKKPGASVKVSCKASGYTFTNSWMNWVRQRPGKGLEWVGRIYPGDGETIYNGKFRVRVTITADESTSTAYMELSSLRSEDTAVYYCARGYDDYSFAYWGQGTTVTVSSGGGGSGGGGSGGGGSDIVMTQSALSLPVTPGEPASISCRSSKSLLHSNGNTYLYWYLQKPGQSPQLLIYRMSNLASGVPDRFSGSGSGTAFTLKISRVEAEDVGVYYCMQHIEYPFTFGQGTKLEIKGGGGSGGGGSGGGGSQVQLVQSGPEVKKPGASVKVSCKASGYTFTNSWMNWVRQRPGKGLEWVGRIYPGDGETIYNGKFRVRVTITADESTSTAYMELSSLRSEDTAVYYCARGYDDYSFAYWGQGTTVTVSSGGGGSGGGGSGGGGSDIVMTQSALSLPVTPGEPASISCRSSKSLLHSNGNTYLYWYLQKPGQSPQLLIYRMSNLASGVPDRFSGSGSGTAFTLKISRVEAEDVGVYYCMQHIEYPFTFGQGTKLEIK	binds		
hVB22B e sc(Fv)2 (scFv) QVQLVQSGPEVKKPGASVKVSCKASGYTFTNSWMNWIRQRPGKGLEWIGRIYPGDGETIYNGKFRVRVTITADESTSTAYMELSSLRSEDTAVYYCARGYDDYSFAYWGQGTLVTVSSGGGGSGGGGSGGGGSDIVMTQSALSLPVTPGEPASISCRSSKSLLHSNGNTYLYWYLQKPGQSPQLLIYRMSNLASGVPDRFSGSGSGTAFTLKISRVEAEDVGVYYCMQHIEYPFTFGQGTKLEIKGGGGSGGGGSGGGGSQVQLVQSGPEVKKPGASVKVSCKASGYTFTNSWMNWIRQRPGKGLEWIGRIYPGDGETIYNGKFRVRVTITADESTSTAYMELSSLRSEDTAVYYCARGYDDYSFAYWGQGTLVTVSSGGGGSGGGGSGGGGSDIVMTQSALSLPVTPGEPASISCRSSKSLLHSNGNTYLYWYLQKPGQSPQLLIYRMSNLASGVPDRFSGSGSGTAFTLKISRVEAEDVGVYYCMQHIEYPFTFGQGTKLEIK	binds		
hVB22B q-wz5 sc(Fv)2 (scFv, Humanized sc(Fv)2 without Flag tag, purified on an MG10-GST column; also called humanized VB22B sc(Fv)2 (q-wz5)) QVQLVQSGPEVKKPGASVKVSCKASGYTFTNSWMNWVRQRPGKGLEWIGRIYPGDGETIYNGKFRVRVTITADESTSTAYMELSSLRSEDTAVYYCARGYDDYSFAYWGQGTTVTVSSGGGGSGGGGSGGGGSDIVMTQSPLSLPVTPGEPASISCRSSKSLLHSNGNTYLYWFQQKPGQAPRLLIYRMSNLASGVPDRFSGSGSGTAFTLKISRVEAEDVGVYYCMQHIEYPFTFGQGTKLEIKGGGGSGGGGSGGGGSQVQLVQSGPEVKKPGASVKVSCKASGYTFTNSWMNWVRQRPGKGLEWIGRIYPGDGETIYNGKFRVRVTITADESTSTAYMELSSLRSEDTAVYYCARGYDDYSFAYWGQGTTVTVSSGGGGSGGGGSGGGGSDIVMTQSPLSLPVTPGEPASISCRSSKSLLHSNGNTYLYWFQQKPGQAPRLLIYRMSNLASGVPDRFSGSGSGTAFTLKISRVEAEDVGVYYCMQHIEYPFTFGQGTKLEIK	binds	binds	
hVB22B u2-wz4 sc(Fv)2 (scFv, Humanized sc(Fv)2 without Flag tag, purified on an MG10-GST column; also called humanized VB22B sc(Fv)2 (u2-wz4)) QVQLVQSGPEVKKPGASVKVSCKASGYTFTNSWMNWVRQRPGKGLEWIGRIYPGDGETIYNGKFRVRVTITADESTSTAYMQLSSLRSEDTAVYYCARGYDDYSFAYWGQGTTVTVSSGGGGSGGGGSGGGGSDIVMTQSPLSLPVTPGEPASISCRSSKSLLHSNGNTYLYWFLQKPGQSPQLLIYRMSNLASGVPDRFSGSGSGTDFTLKISRVEAEDVGVYYCMQHIEYPFTFGQGTKLEIKGGGGSGGGGSGGGGSQVQLVQSGPEVKKPGASVKVSCKASGYTFTNSWMNWVRQRPGKGLEWIGRIYPGDGETIYNGKFRVRVTITADESTSTAYMQLSSLRSEDTAVYYCARGYDDYSFAYWGQGTTVTVSSGGGGSGGGGSGGGGSDIVMTQSPLSLPVTPGEPASISCRSSKSLLHSNGNTYLYWFLQKPGQSPQLLIYRMSNLASGVPDRFSGSGSGTDFTLKISRVEAEDVGVYYCMQHIEYPFTFGQGTKLEIK	binds	binds	
anti-human Mpl antibody VB22B IgG (antibody, V domains shown, also called murine antibody VB22B) VH: QVQLQQSGPELVKPGASVKISCKASGYAFTNSWMNWVKQRPGKGLEWIGRIYPGDGETIYNGKFRVKATLTADKSSSTAYMDISSLTSEDSAVYFCARGYDDYSFAYWGQGTLVTVSA VL: DIVMTQAAPSIPVTPGESVSISCRSSKSLLHSNGNTYLYWFLQRPGQSPQLLIYRMSNLASGVPDRFSGSGSGTAFTLRISRVEAEDVGVYYCMQHIEYPFTFGSGTKLEIK		binds	binds
VB22B sc(Fv)2 (scFv, Single-chain (Fv)2 with 15-residue linkers, purified on anti-Flag gel (FLAG-tagged); also called murine VB22B sc(Fv)2; anti-human Mpl sc(Fv)2) QVQLQQSGPELVKPGASVKISCKASGYAFTNSWMNWVKQRPGKGLEWIGRIYPGDGETIYNGKFRVKATLTADKSSSTAYMDISSLTSEDSAVYFCARGYDDYSFAYWGQGTLVTVSAGGGGSGGGGSGGGGSDIVMTQAAPSIPVTPGESVSISCRSSKSLLHSNGNTYLYWFLQRPGQSPQLLIYRMSNLASGVPDRFSGSGSGTAFTLRISRVEAEDVGVYYCMQHIEYPFTFGSGTKLEIKGGGGSGGGGSGGGGSQVQLQQSGPELVKPGASVKISCKASGYAFTNSWMNWVKQRPGKGLEWIGRIYPGDGETIYNGKFRVKATLTADKSSSTAYMDISSLTSEDSAVYFCARGYDDYSFAYWGQGTLVTVSAGGGGSGGGGSGGGGSDIVMTQAAPSIPVTPGESVSISCRSSKSLLHSNGNTYLYWFLQRPGQSPQLLIYRMSNLASGVPDRFSGSGSGTAFTLRISRVEAEDVGVYYCMQHIEYPFTFGSGTKLEIK		binds	
